# Hit rate of the full screen: of about 200,000 compounds, about 25 (0.01%) were called active. The shares of active, inactive and inconclusive entries below differ from those in the screen. The call rests on the fitted dose curve; in most records, active means well fitted inhibition curve with a large enough effect in the signal ratio, with a control signal flat (not every such curve was filed as active); inconclusive means small, poorly fitted or top-dose-only effect, or effect the other way, or a change in a side signal; inactive means flat fitted curve, though single readings scatter; the % refers to the signal ratio. Where the call is inconclusive, the potency comes from a doubtful curve fit.
# Test: qHTS Assay for Modulators of Lamin A Splicing
# Conditions: HeLa LMNA splicing GFP/RFP minigene ratio, 48 h; ratio change, negative = inhibition: at 46.1 µM (top of the series) unless noted
# Procedure, shortened: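 S3 HeLa cells stably expressing lamin A-EGFP splicing minigene plus DsRed2, 600 cells/well, 48 h compound exposure at 37C. Laser-scanning cytometry; analysed as GFP (500-530 nm)/RFP (575-640 nm) total intensity ratio; 0.5% DMSO vehicle.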
# On the % scale 0 is the no-effect control and ±100 the full control effect; potency means the concentration at half of the fitted maximal effect.
Compound,"ratio change, negative = inhibition",Potency
CCC(=O)NC(=S)Nc1ccc(NC(=O)COc2ccc([N+](=O)[O-])cc2)cc1,inconclusive: -35.5% [at 46 µM],
CC(C)N(C(=O)CSc1nnc(NC(=O)C2CCC2)s1)C(C)C,inactive: 3.25%,
CCn1cc(/C=C/C(=O)NCc2c(C)nn(C)c2C)cn1,inactive: 4.17%,
Cc1ccccc1C(=O)N1CCCN(C(=O)c2ccccc2C)CC1,inconclusive: -18.1%,
Cc1ccc(-n2c(C)cc(C(=O)COc3cccnc3[N+](=O)[O-])c2C)cc1,,"inconclusive: 11.2 µM [fluorescent, partial curve]"
CC(=O)c1cccc(N(CC(=O)Nc2ccc(F)cc2)S(C)(=O)=O)c1,inconclusive: 13.7%,
CCN(CC)CCNS(=O)(=O)c1ccc(/C=C/C(=O)O)cc1,inconclusive: -3.78% [at 46 µM],
Cc1ccc(C)c(NC(=O)COC(=O)CC2c3ccccc3CCN2S(=O)(=O)c2ccc(F)cc2)c1 (centres undefined),inconclusive: 2.5%,
COc1ccc(N2CCC(CNC(=O)Nc3ccc(Cl)cc3)C2)cc1 (centres undefined),,"inconclusive: 4.47 µM [inhibitor, partial curve, poor fit]"
NNc1nc2c(-c3ccc(F)cc3)nnn2c2ccccc12,inconclusive: -27.9% [at 46 µM],
c1ccc(CCNc2ccnc3cc4ccccc4cc23)cc1,,"inconclusive: 3.16 µM [cytotoxic, single point]"
CCCN1CCC(=NNC(=O)c2ccc(Br)o2)CC1,inactive: 7.97%,
CCOC(=O)c1cnc(-n2nc(C)cc2C)nc1NC(C)c1ccccc1 (centres undefined),,"inconclusive: 12.6 µM [falling, partial curve]"
CCC(Sc1nc(C)cc(=O)[nH]1)C(=O)Nc1sc2c(c1C#N)CCCC2 (centres undefined),,"inconclusive: 17.8 µM [falling, single point]"
COc1ccc(/C=C(\C#N)C(=O)NCCc2ccccc2)cc1OCc1ccccc1,inconclusive: -28.1%,
CN(C)CCN(Cc1ccc(Cl)cc1)c1ccccn1,inconclusive: -1.22%,
O=c1c2ccccc2c(C=Nc2cccc(S(=O)(=O)NCc3ccco3)c2)c(O)n1-c1ccc(Cl)cn1,inactive: -11.1%,
CC(C)Nc1ncnc2ccc(Br)cc12,,"inconclusive: 7.94 µM [fluorescent, partial curve]"
CCCC(=O)N1CCN(c2ccc([N+](=O)[O-])cc2Cl)CC1,inconclusive: -0.129%,
CCC(=O)Nc1cccc(-c2cn3c(C)csc3n2)c1,inconclusive: 15.8% [at 46 µM],
CCOc1ccc(Nc2ncnc(N)n2)cc1,inactive: 2.24%,
Clc1cccc(Cl)c1COn1nnc2ccccc21,inconclusive: -22.9%,
COc1ccc(C(=O)NNC(=O)C(Cc2ccc(O)cc2)NC(=O)c2ccccc2NC(=O)c2ccc(OC)cc2)cc1 (centres undefined),inactive: 9.31%,
O=C(Nc1cc(S(=O)(=O)Nc2ccc(Cl)cc2)ccc1N1CCCCC1)c1ccc(F)cc1Cl,,"inconclusive: 35.5 µM [falling, single point]"
CN(C)S(=O)(=O)c1cc(NC(=O)CN2C(=O)NC3(CCCc4ccccc43)C2=O)ccc1Cl (centres undefined),,"inconclusive: 14.1 µM [fluorescent, partial curve, poor fit]"

Compound,"ratio change, negative = inhibition",Potency
CC1=NCCN1S(=O)(=O)c1ccc(Br)c(C)c1,,"inconclusive: 35.5 µM [inhibitor, single point]"
c1cncc(-c2nnc(SCc3cccc4ccccc34)o2)c1,inactive: -0.0318%,
COc1cc(/C=C(\C#N)c2nc3ccccc3[nH]2)c([N+](=O)[O-])cc1OCc1ccccc1,inconclusive: 32.3%,
COc1ccc([C@@H]2Sc3ccccc3N(CCN(C)C)C(=O)[C@@H]2OC(C)=O)cc1,inconclusive: -28.5%,
Cc1cc(C)cc(OCC(=O)NCC2(N3CCOCC3)CCCCC2)c1,inconclusive: 14.1% [at 46 µM],
Cc1ccc(Nc2nc(-c3sc(NC(=O)c4cccc(Cl)c4)nc3C)cs2)cc1,inconclusive: -37.7%,
COC(=O)[C@@H](N)CS,,"inconclusive: 0.0009 µM [inhibitor, full curve, poor fit]"
CC1CC(C)CN(CCOc2ccc(Cl)cc2Cl)C1 (centres undefined),inactive: 10.5%,
CN1CCN(C(=S)Nc2cc(S(=O)(=O)N3CCOCC3)ccc2Cl)CC1,inconclusive: -4.28% [at 46 µM],
O=C(NCc1ccco1)C1CCCN1C(=O)Nc1ccccc1Cl (centres undefined),inconclusive: 14.8% [at 46 µM],
O=C(C1CCN(c2ncnc3c2nc2n3CCCCC2)CC1)N1CCN(c2ccccc2)CC1,inconclusive: -2.08% [at 46 µM],
Cc1nc(SCC(=O)c2ccc(F)cc2)n[nH]1,inconclusive: 0.74%,
CC(=O)NC1(C(F)(F)F)NC(=O)N(c2ccc(F)cc2)C1=O (centres undefined),,"inconclusive: 0.0112 µM [activator, full curve, poor fit]"
Cn1cc(SCC(=O)Nc2nc3ccccc3s2)c2ccccc21,inconclusive: 91.5%,
COc1ccc(NC(=O)CSc2nnc(Cc3cccn3C)n2-c2ccc(F)cc2)cc1OC,inactive: -9.13%,
Oc1c(C(c2ccc(Cl)cc2)N2CCOCC2)sc2nc(-c3ccco3)nn12 (centres undefined),inactive: -0.809% [at 46 µM],
CC(=O)c1cc(-c2ccc(F)cc2)n(CC(=O)NCc2ccc(C)cc2)c1C,inactive: 17.5% [at 46 µM],
CC1(C)OC2CC(=O)OC[C@@]23C1CC(=O)[C@]1(C)C3CC[C@@]2(C)C(c3ccoc3)OC(=O)C3O[C@@]321 (some centres undefined),inconclusive: -11.2%,
CCn1cc(C(=O)O)c(=O)c2cc(F)c(N3CCN(S(=O)(=O)c4ccc(NC(=O)OC)cc4)CC3)cc21,,"inconclusive: 11.2 µM [falling, partial curve]"
COc1ccc(CNC(=O)c2cccc(-c3ccc(C)c4ccccc34)n2)cc1,inconclusive: -30.9%,
Cc1cccc2c1N(CCCOc1ccc(C(C)(C)C)cc1)C(=O)C2=O,inconclusive: -8.08%,
COc1ccccc1CNC(=O)c1cnc2sc(N3CCOCC3)nn2c1=O,inactive: 3.6% [at 46 µM],
Cc1ccc(Nc2ncnc3c2nc2n3CCCC2)c(Br)c1,inconclusive: -23.4% [at 46 µM],
CCOc1cccc(-c2nn(-c3ccccc3)cc2/C=C(/C#N)C(=O)NCCCn2ccnc2)c1,inconclusive: -33.1%,

# Gathered by group: those above containing a nitro group on carbon (four)
Compound,"ratio change, negative = inhibition",Potency
CCC(=O)NC(=S)Nc1ccc(NC(=O)COc2ccc([N+](=O)[O-])cc2)cc1,inconclusive: -35.5% [at 46 µM],
Cc1ccc(-n2c(C)cc(C(=O)COc3cccnc3[N+](=O)[O-])c2C)cc1,,"inconclusive: 11.2 µM [fluorescent, partial curve]"
CCCC(=O)N1CCN(c2ccc([N+](=O)[O-])cc2Cl)CC1,inconclusive: -0.129%,
COc1cc(/C=C(\C#N)c2nc3ccccc3[nH]2)c([N+](=O)[O-])cc1OCc1ccccc1,inconclusive: 32.3%,

# Single records (already shown).
# `COc1ccc(NC(=O)CSc2nnc(Cc3cccn3C)n2-c2ccc(F)cc2)cc1OC` is listed as ratio change, negative = inhibition: inactive: -9.13%
# `CCOc1cccc(-c2nn(-c3ccccc3)cc2/C=C(/C#N)C(=O)NCCCn2ccnc2)c1` is listed as ratio change, negative = inhibition: inconclusive: -33.1%

# Source: PubChem BioAssay AID1487 (National Center for Advancing Translational Sciences (NCATS), 2009)
